The source of these data is PMC10901363 (Science Advances, 2024).

The target in test [1] is T1, GST-FERM E47A E57A mutant (UniProt Q16825).
T1 sequence: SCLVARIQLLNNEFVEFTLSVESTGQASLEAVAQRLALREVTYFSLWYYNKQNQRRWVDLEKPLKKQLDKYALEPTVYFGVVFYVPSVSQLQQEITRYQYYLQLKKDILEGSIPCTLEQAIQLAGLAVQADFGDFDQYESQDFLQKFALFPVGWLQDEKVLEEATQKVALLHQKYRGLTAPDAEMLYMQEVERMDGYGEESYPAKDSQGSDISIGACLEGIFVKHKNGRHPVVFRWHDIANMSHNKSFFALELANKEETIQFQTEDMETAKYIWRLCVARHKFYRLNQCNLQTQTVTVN
The test is described as follows: pull-down; GST-FERM (60 μM) with an equal molar amount of PTP, glutathione-agarose beads, 20 mM tris-HCl pH 8.0, 75 mM NaCl, 0.3 mM TCEP, 2% glycerol, 4°C; both purified.

The target in test [2] is T2, GST-tagged PTPN21 FERM domain (residues 21 to 319) (UniProt Q16825).
T2 sequence: T1 sequence with A27E, A37E
The description is as above.

Another test concerns the target T3, PTPN21 PTP-EGFP (UniProt Q16825 872-1174).
T3 construct: also called WT PTP-EGFP; source: E. coli Rosetta (DE3), purified (as the untagged domain); not shown: His-sumo, N-terminal, cleaved; EGFP, C-terminal, kept
T3 sequence (looked up): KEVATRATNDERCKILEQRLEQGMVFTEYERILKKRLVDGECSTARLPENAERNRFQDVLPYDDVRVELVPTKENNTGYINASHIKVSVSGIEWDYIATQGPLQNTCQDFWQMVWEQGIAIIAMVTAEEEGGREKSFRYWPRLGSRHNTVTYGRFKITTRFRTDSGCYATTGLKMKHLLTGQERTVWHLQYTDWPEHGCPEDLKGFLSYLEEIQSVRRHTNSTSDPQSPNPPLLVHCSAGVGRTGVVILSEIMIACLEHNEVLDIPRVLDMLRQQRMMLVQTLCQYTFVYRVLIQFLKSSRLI
As to the kind of experiment: MST; PTP-EGFP fixed at 80 nM, FERM titrated from 300 μM to 0.09 nM; 20 mM Hepes pH 7.0, 150 mM NaCl, 0.3 mM TCEP, 1.5 mM BSA; mutants measured similarly; both purified.

Test [3] addresses T4, PTPN21 PTP R1089A R1031A mutant (MST) (UniProt Q16825).
T4 sequence: T3 sequence (looked up) with R160A, R218A
The test is described as above.

Where a chain is given by its changes, count along the chain named. Names may count otherwise. No constants are given. Whether binding was seen depends on the method and setting. For some of these results: Tags and fused reporters may be left off the sequences shown.

B1: PTPN21 PTP domain (residues 872 to 1174) (domain or fragment)
chain: T3 sequence (looked up)
Consider B1, for which the binding result in test [1] is on record as “no binding”.

B2: PTPN21 PTP R1089A R1031A mutant (GST pulldown) (domain or fragment, UniProt Q16825 872-1174)
chain: T3 sequence (looked up) with R160A, R218A
Take B2: the binding result in test [2] is “no binding”.

B3: PTPN21 FERM E47A E57A mutant (MST) (domain or fragment, UniProt Q16825 21-319)
chain: T1 sequence
Turning to B3, the binding result in the test with PTPN21 PTP-EGFP is “no binding”.

B4: PTPN21 FERM domain (residues 21 to 319) (domain or fragment, UniProt Q16825 21-319, looked up)
chain: T1 sequence with A27E, A37E
notes: also called FERM^PTPN21; source: E. coli Rosetta (DE3), purified (Ni-NTA, source Q, Superdex 200); not shown: His-sumo, N-terminal, cleaved
On to B4, for which the binding result in test [3] was “no binding”.
